From the supplement of paper PMC12067093, “Discovery and optimisation of a covalent ligand for TRIM25 and its application to targeted protein ubiquitination” (Chemical Science, 2025) come the findings set out here.

By UniProt entry, the sequences of proteins in these tests, tags left out. Where a name states a change or a piece, a line headed by the entry shows the natural chain unless it says otherwise.
UniProt Q9H869: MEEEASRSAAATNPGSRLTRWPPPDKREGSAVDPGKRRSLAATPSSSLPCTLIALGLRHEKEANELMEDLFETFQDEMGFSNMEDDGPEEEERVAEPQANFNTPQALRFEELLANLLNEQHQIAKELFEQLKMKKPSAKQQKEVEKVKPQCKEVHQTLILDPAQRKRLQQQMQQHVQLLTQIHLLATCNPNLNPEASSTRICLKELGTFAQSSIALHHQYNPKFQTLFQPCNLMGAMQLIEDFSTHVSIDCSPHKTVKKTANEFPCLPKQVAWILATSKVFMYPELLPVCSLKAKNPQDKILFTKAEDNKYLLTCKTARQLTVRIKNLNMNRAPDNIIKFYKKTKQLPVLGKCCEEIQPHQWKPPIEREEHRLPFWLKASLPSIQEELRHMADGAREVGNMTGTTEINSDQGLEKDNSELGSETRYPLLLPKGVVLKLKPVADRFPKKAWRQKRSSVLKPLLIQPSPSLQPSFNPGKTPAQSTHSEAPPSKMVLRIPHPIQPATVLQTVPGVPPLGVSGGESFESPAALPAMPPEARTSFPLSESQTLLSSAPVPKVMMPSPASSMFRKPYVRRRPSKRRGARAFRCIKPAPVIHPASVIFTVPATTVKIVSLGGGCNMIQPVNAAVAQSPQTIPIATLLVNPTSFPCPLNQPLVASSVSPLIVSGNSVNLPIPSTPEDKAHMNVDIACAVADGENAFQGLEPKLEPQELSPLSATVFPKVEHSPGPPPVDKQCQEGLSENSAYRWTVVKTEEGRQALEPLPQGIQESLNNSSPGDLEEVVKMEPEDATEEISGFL
UniProt Q96H79: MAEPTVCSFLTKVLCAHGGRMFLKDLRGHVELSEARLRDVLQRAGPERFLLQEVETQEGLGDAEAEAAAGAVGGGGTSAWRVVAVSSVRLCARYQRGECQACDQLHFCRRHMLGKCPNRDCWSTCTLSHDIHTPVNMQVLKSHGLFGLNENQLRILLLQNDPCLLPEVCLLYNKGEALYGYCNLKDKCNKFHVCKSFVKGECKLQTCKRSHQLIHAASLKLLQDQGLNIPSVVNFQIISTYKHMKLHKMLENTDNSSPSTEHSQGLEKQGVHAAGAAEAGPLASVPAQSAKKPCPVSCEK
UniProt Q9H0D6: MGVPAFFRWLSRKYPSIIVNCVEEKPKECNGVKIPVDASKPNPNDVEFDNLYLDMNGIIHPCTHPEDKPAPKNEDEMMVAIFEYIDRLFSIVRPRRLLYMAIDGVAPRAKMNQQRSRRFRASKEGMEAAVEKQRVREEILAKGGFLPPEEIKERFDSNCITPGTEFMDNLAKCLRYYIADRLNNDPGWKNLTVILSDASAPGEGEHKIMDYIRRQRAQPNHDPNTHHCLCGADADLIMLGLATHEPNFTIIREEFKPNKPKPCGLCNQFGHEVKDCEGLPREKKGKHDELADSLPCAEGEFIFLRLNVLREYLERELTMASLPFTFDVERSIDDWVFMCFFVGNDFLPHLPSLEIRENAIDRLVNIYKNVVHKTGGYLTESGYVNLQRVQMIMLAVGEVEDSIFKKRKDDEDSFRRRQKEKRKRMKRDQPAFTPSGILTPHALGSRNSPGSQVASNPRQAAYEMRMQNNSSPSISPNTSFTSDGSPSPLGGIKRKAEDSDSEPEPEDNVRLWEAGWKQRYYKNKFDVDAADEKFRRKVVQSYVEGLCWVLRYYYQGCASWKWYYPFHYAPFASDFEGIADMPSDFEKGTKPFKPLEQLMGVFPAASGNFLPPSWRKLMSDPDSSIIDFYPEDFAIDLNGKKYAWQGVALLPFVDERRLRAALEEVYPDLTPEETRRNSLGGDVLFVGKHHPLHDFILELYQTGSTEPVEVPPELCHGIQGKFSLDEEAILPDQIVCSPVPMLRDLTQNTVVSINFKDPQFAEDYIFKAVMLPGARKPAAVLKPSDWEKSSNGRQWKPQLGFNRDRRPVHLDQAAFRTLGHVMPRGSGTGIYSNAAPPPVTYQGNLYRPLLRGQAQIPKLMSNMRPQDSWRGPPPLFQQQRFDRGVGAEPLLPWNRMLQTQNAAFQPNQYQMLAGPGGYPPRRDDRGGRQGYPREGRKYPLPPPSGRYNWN
UniProt P18887, whole entry, looked up: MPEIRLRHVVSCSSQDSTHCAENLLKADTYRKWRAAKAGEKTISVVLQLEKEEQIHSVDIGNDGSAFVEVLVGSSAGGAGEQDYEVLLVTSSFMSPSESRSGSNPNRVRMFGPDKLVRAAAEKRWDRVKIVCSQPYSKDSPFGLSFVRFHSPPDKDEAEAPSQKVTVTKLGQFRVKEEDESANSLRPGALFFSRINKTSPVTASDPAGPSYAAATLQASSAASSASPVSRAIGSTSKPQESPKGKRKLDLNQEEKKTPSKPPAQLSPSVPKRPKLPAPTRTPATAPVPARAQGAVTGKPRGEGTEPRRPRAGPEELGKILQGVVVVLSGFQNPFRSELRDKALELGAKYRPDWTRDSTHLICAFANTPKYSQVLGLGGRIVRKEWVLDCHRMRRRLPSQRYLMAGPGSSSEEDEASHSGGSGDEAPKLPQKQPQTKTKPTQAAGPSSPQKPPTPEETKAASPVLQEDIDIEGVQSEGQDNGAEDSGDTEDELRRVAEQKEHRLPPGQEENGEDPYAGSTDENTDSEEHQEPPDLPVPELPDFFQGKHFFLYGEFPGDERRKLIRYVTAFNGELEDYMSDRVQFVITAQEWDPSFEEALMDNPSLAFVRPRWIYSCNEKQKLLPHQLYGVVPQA
UniProt O43592: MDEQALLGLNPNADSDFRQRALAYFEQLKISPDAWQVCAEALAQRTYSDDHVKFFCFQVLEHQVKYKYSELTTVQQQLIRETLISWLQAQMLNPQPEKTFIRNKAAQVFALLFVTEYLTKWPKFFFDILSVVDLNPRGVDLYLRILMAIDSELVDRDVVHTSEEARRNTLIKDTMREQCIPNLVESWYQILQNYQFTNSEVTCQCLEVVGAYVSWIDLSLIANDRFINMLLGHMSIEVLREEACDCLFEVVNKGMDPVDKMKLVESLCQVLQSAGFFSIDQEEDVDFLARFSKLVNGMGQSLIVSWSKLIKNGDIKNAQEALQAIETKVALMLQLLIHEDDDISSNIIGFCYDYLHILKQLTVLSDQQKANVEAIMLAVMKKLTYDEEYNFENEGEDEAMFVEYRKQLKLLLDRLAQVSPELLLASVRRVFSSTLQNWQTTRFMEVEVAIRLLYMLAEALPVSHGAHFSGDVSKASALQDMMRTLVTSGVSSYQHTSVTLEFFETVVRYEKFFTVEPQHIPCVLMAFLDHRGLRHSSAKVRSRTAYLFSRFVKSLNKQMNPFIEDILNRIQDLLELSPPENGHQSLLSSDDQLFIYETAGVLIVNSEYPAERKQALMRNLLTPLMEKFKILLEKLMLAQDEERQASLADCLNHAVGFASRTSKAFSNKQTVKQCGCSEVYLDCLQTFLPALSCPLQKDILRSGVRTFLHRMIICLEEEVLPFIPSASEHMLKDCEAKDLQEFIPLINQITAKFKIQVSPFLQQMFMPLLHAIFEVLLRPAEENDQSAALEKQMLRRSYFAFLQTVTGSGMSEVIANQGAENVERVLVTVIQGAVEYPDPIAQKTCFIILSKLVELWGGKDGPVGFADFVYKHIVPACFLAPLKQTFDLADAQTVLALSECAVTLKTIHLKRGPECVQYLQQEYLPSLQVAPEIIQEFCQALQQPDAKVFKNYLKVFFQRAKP
UniProt O75132: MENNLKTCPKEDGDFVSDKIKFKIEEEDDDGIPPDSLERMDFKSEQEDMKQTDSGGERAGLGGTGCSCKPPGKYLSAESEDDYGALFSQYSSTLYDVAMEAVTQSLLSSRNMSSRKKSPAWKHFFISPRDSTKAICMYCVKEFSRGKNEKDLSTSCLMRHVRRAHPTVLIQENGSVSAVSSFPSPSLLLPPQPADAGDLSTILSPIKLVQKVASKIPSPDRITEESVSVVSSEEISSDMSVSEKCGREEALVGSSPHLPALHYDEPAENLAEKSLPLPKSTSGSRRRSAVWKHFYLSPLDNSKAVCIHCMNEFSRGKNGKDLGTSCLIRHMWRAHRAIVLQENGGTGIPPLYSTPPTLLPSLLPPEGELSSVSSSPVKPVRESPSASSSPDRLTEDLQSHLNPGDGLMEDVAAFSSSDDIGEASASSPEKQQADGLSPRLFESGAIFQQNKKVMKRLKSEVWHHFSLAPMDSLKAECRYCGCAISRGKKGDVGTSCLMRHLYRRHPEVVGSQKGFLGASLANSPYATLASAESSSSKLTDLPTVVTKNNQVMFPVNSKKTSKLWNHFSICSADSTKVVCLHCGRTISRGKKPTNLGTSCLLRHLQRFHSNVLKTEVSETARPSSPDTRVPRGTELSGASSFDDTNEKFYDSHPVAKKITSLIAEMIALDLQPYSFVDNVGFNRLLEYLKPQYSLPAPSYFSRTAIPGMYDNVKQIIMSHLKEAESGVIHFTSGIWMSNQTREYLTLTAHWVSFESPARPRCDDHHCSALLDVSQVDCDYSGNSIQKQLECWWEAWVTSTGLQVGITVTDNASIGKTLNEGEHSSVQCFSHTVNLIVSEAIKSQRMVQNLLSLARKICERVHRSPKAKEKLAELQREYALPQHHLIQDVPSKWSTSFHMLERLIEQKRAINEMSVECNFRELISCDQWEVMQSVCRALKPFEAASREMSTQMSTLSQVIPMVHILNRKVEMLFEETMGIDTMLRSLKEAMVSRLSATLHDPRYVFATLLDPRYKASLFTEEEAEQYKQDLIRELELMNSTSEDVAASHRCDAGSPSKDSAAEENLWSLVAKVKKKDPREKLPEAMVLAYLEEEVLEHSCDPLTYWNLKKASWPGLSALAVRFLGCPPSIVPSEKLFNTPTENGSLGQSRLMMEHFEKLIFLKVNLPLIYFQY
UniProt Q8TCF1: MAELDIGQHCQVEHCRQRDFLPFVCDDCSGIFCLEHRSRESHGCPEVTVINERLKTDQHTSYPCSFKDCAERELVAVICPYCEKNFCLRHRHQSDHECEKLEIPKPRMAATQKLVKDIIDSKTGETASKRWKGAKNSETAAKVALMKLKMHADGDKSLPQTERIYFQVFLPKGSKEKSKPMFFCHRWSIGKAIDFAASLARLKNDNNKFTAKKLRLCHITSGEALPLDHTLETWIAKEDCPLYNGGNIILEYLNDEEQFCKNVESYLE
UniProt Q6PJT7: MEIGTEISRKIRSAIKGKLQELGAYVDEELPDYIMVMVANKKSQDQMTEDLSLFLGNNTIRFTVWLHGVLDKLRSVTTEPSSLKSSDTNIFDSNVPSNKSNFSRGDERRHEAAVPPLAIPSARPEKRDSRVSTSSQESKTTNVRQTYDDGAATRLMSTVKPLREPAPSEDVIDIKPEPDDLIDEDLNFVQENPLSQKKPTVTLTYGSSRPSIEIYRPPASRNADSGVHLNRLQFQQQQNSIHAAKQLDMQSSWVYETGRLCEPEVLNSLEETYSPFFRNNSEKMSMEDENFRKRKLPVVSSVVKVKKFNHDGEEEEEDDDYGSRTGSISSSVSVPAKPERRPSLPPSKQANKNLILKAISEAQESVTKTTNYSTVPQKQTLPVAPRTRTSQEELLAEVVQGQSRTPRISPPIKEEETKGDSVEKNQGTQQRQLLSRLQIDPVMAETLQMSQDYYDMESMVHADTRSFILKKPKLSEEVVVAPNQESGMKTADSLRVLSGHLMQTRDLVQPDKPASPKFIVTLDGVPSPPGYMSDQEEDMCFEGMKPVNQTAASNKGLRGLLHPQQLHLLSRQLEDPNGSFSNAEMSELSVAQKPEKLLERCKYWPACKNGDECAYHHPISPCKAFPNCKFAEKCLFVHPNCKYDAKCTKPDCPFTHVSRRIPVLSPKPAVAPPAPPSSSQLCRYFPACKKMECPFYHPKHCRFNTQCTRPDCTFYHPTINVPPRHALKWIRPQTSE

Compound in the experiment: CC1Cc2ccccc2N1C(=O)C1CCCN(C1)C(=O)CCl (mixture of isomers) [TRIM25 ligand 11 (diastereomer mixture)]
As to the kind of experiment: probe-labelled cysteine peptide fold change vs DMSO (competition) (log2 fold change); higher = less target engagement (more negative = stronger competition). Particulars: THP-1, incubation time: 4 h.

The other results are listed elsewhere or left out.
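Also: competitive chemoproteomic profiling in live THP-1 cells with an iodoacetamide desthiobiotin (IA-DTB) probe, comparing probe-labelled peptide intensities in compound-treated cells against DMSO-treated controls.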

In the case of “YY1AP1_Q9H869_689_AHMNVDIACAVADGENAFQGLEPK (UniProt Q9H869)”, the “probe-labelled cysteine peptide fold change” value (10 µM) was determined as 0.1 and the “probe-labelled cysteine peptide fold change” value (50 µM) was 0.221.
“ZC3HAV1L_Q96H79_15_VLCAHGGR (UniProt Q96H79)”: the “probe-labelled cysteine peptide fold change” value amounted to 0.293 (10 µM) and 0.102 (50 µM).
The matching figures for “XRN2_Q9H0D6_296_GKHDELADSLPCAEGEFIFLR (UniProt Q9H0D6)”: 0.0997 and -0.0177.
For “XRCC1_P18887_362_DSTHLICAFANTPK (UniProt P18887)”, in that order: -0.162 and -0.411.
The matching figures for “XRCC1_P18887_389_EWVLDCHR (UniProt P18887)”: -0.00129 and 0.0797.
As for “XPOT_O43592_900_QTFDLADAQTVLALSECAVTLK (UniProt O43592)”, the “probe-labelled cysteine peptide fold change” value is, setting by setting: (10 µM) 0.0433; (50 µM) 0.155.
“ZC3HAV1L_Q96H79_108_GECQACDQLHFCR (UniProt Q96H79)”: the “probe-labelled cysteine peptide fold change” value runs as follows: (10 µM) 0.199; (50 µM) 0.2.
The matching figures for “XPO7_Q9UIA9_66_GSSSYSQLLAATCLTK (UniProt Q9UIA9)”: 0.0137 and 0.129.
For “ZBED4_O75132_156_DLSTSCLMR (UniProt O75132)”, in that order: -0.0156 and 0.00774.
For “ZFAND1_Q8TCF1_10+15_AELDIGQHCQVEHCR (UniProt Q8TCF1)”, the “probe-labelled cysteine peptide fold change” value (10 µM) was -0.0392 and the “probe-labelled cysteine peptide fold change” value (50 µM) was determined as 0.251.
For “ZC3H14_Q6PJT7_634_CLFVHPNCK (UniProt Q6PJT7)”, in that order: -0.00424 and -0.0967.
